In paper PMC8974011 one finds binding data, which are given here for two substances.

Sequences of proteins named here, by UniProt entry; tags and fusion partners are left off. A change or cut given only in a name is not applied to a line headed by its entry. A line that says so, or that is headed by a name, gives the form on record, which may keep a tag or linker.
UniProt P42224: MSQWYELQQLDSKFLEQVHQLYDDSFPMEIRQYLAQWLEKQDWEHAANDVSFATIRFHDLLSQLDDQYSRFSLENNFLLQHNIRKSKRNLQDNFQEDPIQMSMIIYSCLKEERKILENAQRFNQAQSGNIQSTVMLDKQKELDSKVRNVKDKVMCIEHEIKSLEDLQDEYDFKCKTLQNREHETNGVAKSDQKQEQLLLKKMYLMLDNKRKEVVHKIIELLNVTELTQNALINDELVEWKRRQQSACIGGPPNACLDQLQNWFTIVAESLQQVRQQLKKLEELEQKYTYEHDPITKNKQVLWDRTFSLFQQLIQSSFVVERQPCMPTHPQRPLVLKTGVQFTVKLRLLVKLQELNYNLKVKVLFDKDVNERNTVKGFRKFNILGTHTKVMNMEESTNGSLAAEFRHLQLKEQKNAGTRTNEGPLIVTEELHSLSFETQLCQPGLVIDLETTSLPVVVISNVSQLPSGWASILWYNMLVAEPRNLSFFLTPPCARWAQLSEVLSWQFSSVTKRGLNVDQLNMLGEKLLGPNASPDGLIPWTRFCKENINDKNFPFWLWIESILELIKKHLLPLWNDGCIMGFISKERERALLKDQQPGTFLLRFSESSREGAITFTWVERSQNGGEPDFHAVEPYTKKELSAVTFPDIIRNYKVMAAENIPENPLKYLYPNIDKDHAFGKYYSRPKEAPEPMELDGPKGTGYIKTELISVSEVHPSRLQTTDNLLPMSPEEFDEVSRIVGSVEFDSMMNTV
quadruple mutant R274W/T385A/R602L/Y701F of STAT1-GFP (QM-GFP) (P42224, form named): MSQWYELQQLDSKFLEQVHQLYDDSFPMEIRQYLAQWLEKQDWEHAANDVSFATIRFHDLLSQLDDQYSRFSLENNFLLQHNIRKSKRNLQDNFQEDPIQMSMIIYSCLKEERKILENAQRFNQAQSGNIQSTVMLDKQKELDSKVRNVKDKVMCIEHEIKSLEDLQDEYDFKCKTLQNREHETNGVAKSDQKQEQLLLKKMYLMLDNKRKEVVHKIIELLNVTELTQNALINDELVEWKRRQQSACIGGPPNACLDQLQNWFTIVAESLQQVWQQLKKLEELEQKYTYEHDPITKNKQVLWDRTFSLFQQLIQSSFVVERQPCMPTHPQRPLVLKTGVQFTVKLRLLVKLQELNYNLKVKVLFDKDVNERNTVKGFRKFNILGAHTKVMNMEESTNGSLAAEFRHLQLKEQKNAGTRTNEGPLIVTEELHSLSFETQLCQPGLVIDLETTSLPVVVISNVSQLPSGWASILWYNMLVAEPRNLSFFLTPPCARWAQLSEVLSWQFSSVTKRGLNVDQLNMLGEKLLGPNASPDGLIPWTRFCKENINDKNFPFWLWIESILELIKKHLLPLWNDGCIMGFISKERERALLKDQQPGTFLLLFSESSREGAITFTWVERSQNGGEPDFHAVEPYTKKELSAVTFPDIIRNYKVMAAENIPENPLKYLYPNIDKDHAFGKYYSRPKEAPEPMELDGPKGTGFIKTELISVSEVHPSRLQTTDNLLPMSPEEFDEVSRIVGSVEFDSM

No constants are given. Whether binding was seen depends on the method and setting. Some binding calls cover weakened binding; strength is not graded here.

This assay concerns the target endogenous STAT1 of HeLa cells (human (endogenous in HeLa)) (UniProt P42224). Description: native gel or EMSA; extracts of IFNγ-stimulated HeLa cells incubated with [33P]-labelled 2xGAS duplex DNA (two tandem GAS sites); super-shift with STAT1 antibody; competition with 750-fold molar excess of unlabelled M67 DNA; 4.8% acrylamide gel at 4 °C; only DNA-bound complexes are seen. (In EMSA bound probe runs differently from free probe, usually more slowly.)

For the substance “quadruple mutant R274W/T385A/R602L/Y701F of STAT1-GFP (QM-GFP) (from UniProt P42224 1-746)”, the binding entry is “no binding”.
Consider “pEGFPN1-STAT1α (WT-GFP): human STAT1 (amino acids 1–746) with carboxy-terminal green fluorescent protein (from UniProt P42224 1-746)”, for which the binding entry was “binds”.
